Among the data in PubChem BioAssay AID493014 (National Center for Advancing Translational Sciences (NCATS), 2011) are AC50 values, retold here.

Usually AC50 stands for the concentration giving half of the maximal activity seen.

A short description of this assay: qHTS Assay to Find Inhibitors of Chronic Active B-Cell Receptor Signaling. The following applies: ABC-DLBCL IkBa-CBG/CBR reporter, luminescence ratio (green luciferase fused to IkBa over red control in TMD8 lymphoma cells), 4 h. The method, boiled down: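 Compounds up to 46 uM were incubated four hours with TMD8 cells whose green CBG68 luciferase is fused to IkappaBalpha; red CBR luminescence normalised the signal, and concentration-effect curves were fitted to fusion, red and ratio data.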
(Quantitative high-throughput screening tests each substance at several concentrations.)

Where [1] appears, read: measured here: CBR red luminescence, cell number.
Where [2] appears, read: measured here: IkBa-CBG green luminescence.

Each structure is given as a SMILES string. The list shows a part of the results. Shown are side measurements of this screen, not its main read-out; they come without a call. The list favours compounds with an active or inconclusive main result. Potencies come from curve fits of mixed quality, noted in brackets.

Consider `CSc1ccccc1NC(=S)Nc1cccc(C(F)(F)F)c1`, for which, under setting [1], the AC50 was 29.1 µM [rising, single point].

In the case of `COc1cccc(C(=O)Nc2nnc(C3CCCO3)s2)c1` (configuration not stated), the AC50 under setting [1] was 8.2 µM [falling, partial curve].

`COc1cccc(/C=N/n2c(-c3cc(C)[nH]n3)n[nH]c2=S)c1O`: the AC50 under setting [1] was 25.1 µM [falling, single point].

`COc1cccc(-c2nc(-c3ccccn3)no2)c1`: the AC50 under setting [1] is 7.94 µM [falling, partial curve].

In the case of `O=C(Nc1nnc(-c2cccs2)s1)c1cccc(F)c1`, the AC50 under setting [1] is 0.282 µM [falling, full curve].

`COc1ccc(-c2cc(C(=O)NC(Cc3c[nH]c4ccccc34)C(=O)O)c(C)o2)cc1OC` (configuration not stated): the AC50 under setting [1] was 23.1 µM [falling, partial curve].

For the compound `CC(C)(C)C1CCC(OCC(O)CN2CCCC2)CC1` (configuration not stated), under setting [1], the AC50 is 7.94 µM [falling, partial curve].

In the case of `COc1ccc(-c2nsc3c(N4CCCCC4C)ncnc23)cc1` (configuration not stated), the AC50 under setting [1] was 14.1 µM [rising, partial curve].

As for `COc1cc2nc(C)sc2cc1SC`, the AC50 under setting [1] is 1.12 µM [falling, full curve].

For `Cc1ccccc1C(=O)Nc1ccc(N2CCCCCC2)cc1`, under setting [1], the AC50 was 12.6 µM [falling, partial curve, poor fit].

`O=C(CSc1ncccn1)Nc1ccc(N2CCOCC2)cc1`: the AC50 under setting [1] is 29.1 µM [falling, single point].

For `CCOc1ccc(C(=O)Nc2cc(Cl)ccc2-n2cncn2)cc1OC`, the AC50 under setting [1] is 2.59 µM [rising, full curve, poor fit].

`O=C(Nc1ccc(NC(=O)C2CC2)cn1)c1ccccc1Cl`: the AC50 under setting [1] was 8.2 µM [falling, partial curve].

With `Cc1cccc(N2CCN(CC(=O)NCc3ccccc3)CC2)c1C`, the AC50 under setting [1] was 35.5 µM [falling, single point].

Turning to `CC(=O)C1=C(O)C(=O)N(CCC(=O)O)C1c1cccc(F)c1` (configuration not stated), the AC50 under setting [1] is 25.9 µM [rising, partial curve].

Turning to `Cc1nnc(-c2ccc(Oc3ccc(C)c(C)c3)c([N+](=O)[O-])c2)o1`, under setting [1], the AC50 is 23.1 µM [falling, single point].

For `CC(=O)N1c2ccccc2Oc2cc3ccccc3cc21`, under setting [1], the AC50 is 0.326 µM [rising, full curve].

Consider `C=CCNC(=S)N/N=C(\C)c1ccc(OC)cc1`, for which the AC50 runs as follows: under setting [1], 23.1 µM [rising, single point]; under setting [2], 18.4 µM [falling, single point].

Turning to `Cc1cc(NC(=O)C(C)SCC(=O)N(C)CC(=O)Nc2ccccc2C(F)(F)F)no1` (configuration not stated), under setting [1], the AC50 is 7.31 µM [rising, partial curve, poor fit].

On to `Cc1cccc(-c2noc(CCCC(=O)NCC3CCCO3)n2)c1` (configuration not stated), for which the AC50 was 2.24 µM [rising, partial curve] under setting [1] and 0.708 µM [rising, full curve, poor fit] under setting [2].

On to `CCCCc1nc2c(=O)[nH]c3ccccc3c2o1`, for which the AC50 under setting [1] is 0.0891 µM [rising, full curve, poor fit].

As for `Cc1cccc(NC(=O)C(=O)NCCCN2CCOCC2)c1`, under setting [1], the AC50 is 3.16 µM [falling, partial curve, poor fit].

In the case of `C/C(CC(=O)Nc1cccc(Cl)c1C)=N\NC(=O)Cc1csc(N)n1`, the AC50 under setting [1] is 5.62 µM [falling, partial curve].

Take `Cc1nc(N)nc(SCc2ccc([N+](=O)[O-])cc2)c1N`: the AC50 under setting [1] is 17.8 µM [rising, single point].

With `COC(=O)NCCOC(=O)N(O)c1ccc(Br)cc1`, the AC50 under setting [1] was 35.5 µM [rising, single point].

As for `CC(=O)Nc1ccc(NC(=O)CC2SC(=O)N(CC(=O)c3ccccc3)C2=O)cc1` (configuration not stated), the AC50 under setting [1] was 10 µM [rising, partial curve, poor fit].

`Nc1nc(NC(=O)c2ccccc2Cl)nn1-c1ccccc1`: the AC50 under setting [1] was 0.501 µM [falling, full curve].

On to `CCCCC(=O)N/C(N)=N/c1nc2ccccc2o1`, for which the AC50 under setting [1] was 7.08 µM [falling, partial curve, poor fit].

As for `COc1ccc2nc(C)cc(SCC(=O)NNC(=O)COc3ccc(C)cc3)c2c1`, the AC50 under setting [1] is 10 µM [rising, partial curve, poor fit].

As to `C/C(=N\NC(=O)Cc1ccc(Cl)cc1)c1ccccn1`, the AC50 was 35.5 µM [rising, single point] under setting [1] and 22.4 µM [falling, single point] under setting [2].

Turning to `CCOc1cc(C(=O)N/N=C/c2ccoc2)cc(OCC)c1OCC`, the AC50 was 35.5 µM [rising, single point] under setting [1] and 35.5 µM [falling, single point] under setting [2].

On to `CCOc1ccccc1C(=O)Nc1cccc2cccnc12`, for which the AC50 under setting [1] is 10 µM [falling, partial curve].

As for `CCCc1cc(=O)oc2cc(OCC(=O)NCCc3c[nH]c4ccccc34)ccc12`, under setting [1], the AC50 was 17.8 µM [rising, single point].

Take `CCS(=O)(=O)n1nc(-c2ccccc2)nc1SC`: under setting [1], the AC50 was 20.6 µM [falling, single point].

With `Cc1nc(CC(C)C)cc(C(=O)N2CCCC(CNS(=O)(=O)c3cccs3)C2)n1` (configuration not stated), the AC50 under setting [1] is 0.355 µM [rising, full curve, poor fit].

Regarding `Cc1ccc(N2CC(C(=O)NCc3ccc4c(c3)OCO4)CC2=O)cc1C` (configuration not stated), the AC50 under setting [1] is 6.51 µM [falling, single point].

For `COc1ccc(-c2cn3c(C)c(C(=O)Nc4ccncc4)sc3n2)cc1`, the AC50 under setting [1] was 29.1 µM [falling, single point].

For `CC(=O)Nc1cccc(C(=O)OCC(=O)N2CCC(c3ccccc3)=N2)c1`, under setting [1], the AC50 is 4.61 µM [falling, partial curve].

`CCCCCn1c(=O)c(C(=O)OCC)c(O)c2ccccc21`: the AC50 under setting [1] was 18.4 µM [falling, single point].

Consider `COc1ccc(C(=O)/C=C/c2cccs2)c(OC(=O)c2cccc([N+](=O)[O-])c2)c1`, for which, under setting [1], the AC50 is 5.17 µM [rising, partial curve, poor fit].

Turning to `COc1ccc(N(CC(=O)O)S(C)(=O)=O)cc1OC`, the AC50 under setting [1] is 0.164 µM [rising, full curve, poor fit].

`C/[N+]([O-])=C\C1C(=O)CCCC1=O`: the AC50 under setting [1] is 35.5 µM [rising, single point].

As for `Cc1sc2ncnc(NCCc3ccc(S(N)(=O)=O)cc3)c2c1C`, under setting [1], the AC50 was 32.6 µM [falling, single point].

Regarding `CC1CCN(S(=O)(=O)c2ccc(C(=O)Nc3ccccn3)cc2)CC1`, under setting [1], the AC50 was 29.1 µM [falling, single point].

As to `COc1ccc(-c2cn3cc(C)ccc3n2)cc1F`, the AC50 under setting [1] was 0.447 µM [rising, partial curve, poor fit].

Consider `O=c1c(C=NCCCn2ccnc2)c(-c2ccccc2)[nH]n1-c1nc2ccccc2s1`, for which the AC50 under setting [1] was 32.6 µM [rising, single point] and the AC50 under setting [2] was 0.82 µM [rising, full curve].

As to `COC(=O)c1ccccc1NC(=O)CNc1cc(OC)c(OC)cc1C`, the AC50 under setting [1] was 11.6 µM [falling, partial curve, poor fit].

For `COc1ccc(C(=O)N[C@H](C(=O)NCCc2ccc3c(c2)OCCO3)C(C)C)cc1`, under setting [1], the AC50 is 1.84 µM [rising, partial curve, poor fit].

As to `Nc1ccc(C(=O)OCC(=O)N2c3ccccc3Sc3ccccc32)cc1[N+](=O)[O-]`, the AC50 under setting [1] is 32.6 µM [falling, single point].

As for `O=C1NC2(O)C(=O)c3ccccc3C2(O)N1` (configuration not stated), under setting [1], the AC50 was 22.4 µM [rising, single point].

Turning to `CCOC(=O)C(=O)/C(C#N)=C/Nc1ccc(F)cc1`, the concentration at half-maximal activity (AC50) under setting [1] was 6.51 µM [falling, full curve].

On to `CCCCN(CCCC)S(=O)(=O)c1ccc(NC(=O)Cc2cccs2)cc1`, for which the AC50 under setting [1] was 1.64 µM [rising, partial curve, poor fit].

Turning to `Cc1ccc(OCC(=O)O/N=C(\N)c2ccccn2)cc1C`, under setting [1], the AC50 is 10 µM [falling, partial curve, poor fit].

Take `C=CCNc1ncnc2c1cnn2-c1ccc(Cl)cc1`: the AC50 under setting [1] was 0.058 µM [rising, full curve, poor fit].

As to `Cc1cc2oc(=O)cc(CN3CCOCC3)c2cc1C(C)C`, the AC50 under setting [1] was 20 µM [rising, single point].

For the compound `Cc1cccc(NC(=O)Cn2c(=O)n(Cc3ccco3)c(=N)c3c4c(sc32)COC(C)(C)C4)c1`, the AC50 under setting [1] is 14.1 µM [falling, single point].

As for `Cc1cnc(NC(=O)Cc2ccccc2F)s1`, under setting [1], the AC50 is 14.1 µM [falling, partial curve, poor fit].

Take `S=C(Nc1ccccc1)Nc1nc2ccccc2n1CCOc1ccc(Br)cc1`: the AC50 under setting [1] was 0.651 µM [rising, full curve, poor fit].

For the compound `Cc1cc(C2C(C#N)=C(N)SC(N)=C2C#N)c(C)s1`, the AC50 under setting [1] was 29.1 µM [falling, single point].

On to `CCS(=O)(=O)N1CCCC(C(=O)NCc2ccccc2Cl)C1` (configuration not stated), for which, under setting [1], the AC50 was 29.1 µM [rising, single point].

`O=C(Nc1nc2ccc(F)cc2s1)c1ccccn1`: the AC50 under setting [1] was 2.82 µM [falling, full curve] and the AC50 under setting [2] was 3.55 µM [falling, full curve].

Take `Cc1ccc(C(=O)NCCNC(=O)COc2ccccc2Cl)cn1`: the AC50 under setting [1] is 0.631 µM [falling, full curve, poor fit].

Turning to `COC(=O)Cc1ccc(NC(=O)c2ccccc2Cl)cc1`, under setting [1], the AC50 is 11.2 µM [falling, single point].

Take `COc1ccc(Nc2nc3cc(C)ccc3cc2C#N)cc1`: under setting [1], the AC50 is 0.282 µM [rising, full curve, poor fit].

For `O=C(O)/C=C/C(=O)Nc1ccc(Oc2ccccc2)cc1`, under setting [1], the AC50 is 5.62 µM [rising, full curve, poor fit].

For `CCc1cc(CNC(=O)c2ccc3nc(Cc4ccc(OC)c(OC)c4)oc3c2)on1`, the AC50 under setting [1] was 35.5 µM [falling, single point].
